These are yes or no findings as the source states them, for the method shown. In cells and extracts the contact can be indirect. Some entries that bind do so weakly or less than the wild type.
Target: GST-RPA1N (N terminal 121 amino acids of Xenopus RPA1) (Xenopus) (UniProt Q01588)
Experiment: pull-down; glutathione Sepharose beads coated with GST-RPA1N incubated with Xenopus egg extract (diluted 1:1 with ELB), 4°C 1 h; washed with buffer A + 150 mM NaCl + 0.005% NP-40; Western blot for WRN and DNA2; only the target purified

Chains of the proteins cited; added tags and fusions are not shown. Residues count along the entry.
UniProt Q01588, residues 1-121: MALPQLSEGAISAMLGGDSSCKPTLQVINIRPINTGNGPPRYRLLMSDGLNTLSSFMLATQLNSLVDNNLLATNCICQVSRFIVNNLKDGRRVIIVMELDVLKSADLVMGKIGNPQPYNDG

Row | binding | Binder
1 | binds | Xenopus WRN in egg extract (protein, UniProt O93530 1-1436) MTSLQRKLPEWMSVKQQEDRIDDAKKSFCKKNILEDNLPFMKFNGSIVYSYESNDCSLLSEDIRSSLLEEDVLGFDIEWPPVYTKGKTGKVALIQVCVSEKKCYLFHISPMAGFPKGLKRLLEDESVRKVGVGIEGDQWKLMSDYELKLKGFIELSEMANQKLRCKEKWTFNGLIKHLFKEQLYKRKSYRCSNWDIFLLTEDQKLYAATDAYAGLLIYKKLEGMDAHESDSFRVGREGVADCKGVKRQLTDLSKGLMDLVNQVPNSFGCYTEAVRAVDILEDLSEKLEELRNIMKEASKAEGNGLHFQNSEDCSKKDKSILHVACKESLAEHKMDCKNADSQNNKDIDSCQNENRDEDFFMTLGISEEELYMMEREDDKKQTNPDYKLNKDSCDTNEEKDMSYVIESDEDFDSEIIKSLEDLDNSTEEALGTGVPQAGLIPAKSVDTVADEEEDEGIEEEDDDDDWDPSMPEPSAQHISCLKTYFGHSSFKPVQWKVVHSVLRERRDNLVVMATGYGKSLCYQFAPVYTSGIGIVICPLISLMEDQVLQLEMSNISSCFLGSAQSKNVLQDVKDGKMRVIYMTPEFCSRGISLLQDLDNRYGITLIAIDEAHCISEWGHDFRSAYRSLGSLKRMLPNVPIVALTATASPSIREDITKSLNLHNPQVTCTSFDRPNLYLDVARKTTNISIDLRQFLIKKQQGSGWEFEGATIVYCPTRKTSEQVTAELIKLGIACGTYHAGMGIKQRREVHHRFMRDEIHCVVATVAFGMGINKPDIRKVIHYGAPKEMESYYQEIGRAGRDGLPSCCHALWAQADMNFNRHMLGEIPNKGFREYKLKMLTKMEKYLNSSTCRRKIILSHFEDKQLRKASSGIMGTEKCCDNCKTRLICNISINDTEDNLQDFGPQAYKFISAVDVLGQKFGTGVPVLFLRGSTSQRVPDRFRNHSLFSSGKDQTEAFWKVLARQLITEGYLQESSGQTKFSTICGLTSKGSNWLIKANNEQCPSLLLPSNNELCLQRTRVSNFSSAQAHSSMVPHASSNTRSSMPKAGPEKMELKDKFSYQEAERLSKAAGVSKSSFKLQTPCKLSRPPEPEVSPRERELQTTLYGRLVVARQKIASERDILPAVLATNKVLVDMAKLRPTTSENMKKLDGVSEAKSAMLAPLLEVVKEFCIANSLKVDVFSGSVSQSESTFFTPREQERISLPESQRMSYSLFQEQNLSLKKIADVRCLSMAVVGMHLWQALKAGYSFDVQRAGLTPEMKKLITYAIKKPPINSDLSSFKAIREYVPANIDGYPIRMVISLLEKEGSSGAQGQPEFPTQKTLIQTEENPKNVSVQNTKHKVTMGKSMWIEKKPTQPATAELEVTKGKALAPIMLASWNEASLDADTEELFSESQSSTTRPRRRLPEWFGSTKGNAATRCIQESKNLGEEKGSFFD
2 | binds | Xenopus DNA2 in egg extract (protein, UniProt Q8QHA5 1-1053) MEPVSAECHLPPEDDLLEMMMEQSFTEPEEKSQDKPTRKIIPKTKLCKGVNNRYCVLHIKEVYAQREEKHLTITASQEGDDLELCILKDDWVALQIKPGDIIHLEGNCSVDNTWTISRDTGYLILYPDLLISGTSIANGIRCLRRSVLSEKFKVCDKGSRQMLNGTMLHDIFQRATTCGFTDSVLQELAHHTVHGPKYLKEMYQLKLNQADVMGEIQEYLPSLSKWATDFMTHPLNQQQINRTKSTAGDPTETTKVSEFLDIEENIWSPRFGLKGKIDVTARVKIHQKSKAHLKIMPLELKTGKESNSIEHRSQVVLYTLLSQERREDPEAGLLLYLKTGNMYTVPGNRLDRRELLKIRNELSYYLTNVLHKSDNGSKETTLASLPAMIADRQACKYCSQMRNCALYNRSVEQQTENCYIPPEMIPVVQKETEHLTEDHLQYFRLWYLMCTLEANSKDSKMGRKNIWMMSSSEREEDGQCIGNLIRTGHVQTISDVQYLHSFQRRSGSVPATNLASGDRVVVSGEERFLALSTGYIKEVKDENITCILDRSLVKLPEDLLFRLDHEEGGGGLEFHLGNLSRLMENSSVSEKLRKLIIDFSKPNFVQHLSSILPPDAKDIVASILRGLNKPQKQAMKRVLLSKDYTLIVGMPGTGKTTTICTLVRILYACGFSVLLTSYTHSAVDNILLKLKKFQVGFLRLGRTQKLHPDVQEFSEEEICKAKSIKSLSALEELYNSQPVVATTCMGVNHPIFTRRRFDFCIVDEASQISQPICLGPLFFADRFVLVGDHQQLPPLVKSAEARELGMSESLFKRLERNQEAVVQLTVQYRMNSKIMALSNKLVYEGRLECASDRVSNAVVQLPHIKTLLLELEFRESQESMWIKDVLEPSNPVCFLNTEKIPALETEEKGGISNWIEAKLVFHLTKLYLKAGCRPSDIGIIAPYRQQLKMISNYFNSLSASAVEVNTVDKYQGRDKSVIIVSFVRSNIDGKLGDLLKDWRRLNVALTRAKHKLIMLGCVPTLNRFDCLEQLICNLKTENQIYDLPEGAHEHFPV

Source: PMC4605295, “The N-terminus of RPA large subunit and its spatial position are important for the 5′->3′ resection of DNA double-strand breaks” (Nucleic Acids Research, 2015)
